Test results from patent publication US8541458B2, “Oxabicycloheptanes and oxabicycloheptenes, their preparation and use” (Lixte Biotechnology, Inc., priority 2008, dated 2013).
For at least one compound, name, drawing or mass did not settle the structure.

Tested on: Akt
Assay: Akt phosphorylation after intraperitoneal administration to mice
Type: in vivo
Conditions: given intraperitoneally to normal mice
Text: The compounds described herein increase the phosphorylation of several regulatory proteins including Akt. At low doses that are non-toxic to mice, these compounds slightly stimulate cell proliferation and increase phosphorylation of Akt in human cancer cells lines tested, including SH-SY5Y.
The mechanism by which the compounds described herein exert their neuroprotective effect may be by increasing the intra-neuronal cell activity of Akt-1 and enhancing the acetylation of neuronal histones. Each of these compounds when given by intraperitoneal injection increase Akt phosphorylation in mouse neurons. This increase in Aky phosphorylation is associated with an increase in the phosphorylation of GSK-3β. Because increased phosphorylation of GSK-3β is known to decrease its activity, chronic suppression of GSK 3β by the compounds described herein may reduce tau phosphorylation. Reduction in tau phosphorylation reduces the formation of paired helical filaments, an intervention that should lessen the progression of tauopathies, including Alzheimer's disease, Parkinson's disease, amyotrophic lateral sclerosis, and other rarer neurodegenerative diseases characterized by abnormal depositions of tau molecules.

`O=C(O)C1C2CCC(O2)C1C(=O)NCCN1C(=O)NC(c2ccccc2)(c2ccccc2)C1=O` (stereo not shown) [Compound 114, 3-[2-(2,5-Dioxo-4,4-diphenyl-imidazolidin-1-yl)-ethylcarbamoyl]-7-oxa-bicyclo(2.2.1]heptane-2-carboxylic acid] was tested, and the Akt phosphorylation was “increased Akt phosphorylation”.
